From publication PMC7819943, “Rice protein-binding microarrays: a tool to detect cis-acting elements near promoter regions in rice”
This is one part of the list.

Molecular target: T1, OsSMF1 (Oryza sativa, UniProt Q6ZLB0 1-436)
T1 sequence: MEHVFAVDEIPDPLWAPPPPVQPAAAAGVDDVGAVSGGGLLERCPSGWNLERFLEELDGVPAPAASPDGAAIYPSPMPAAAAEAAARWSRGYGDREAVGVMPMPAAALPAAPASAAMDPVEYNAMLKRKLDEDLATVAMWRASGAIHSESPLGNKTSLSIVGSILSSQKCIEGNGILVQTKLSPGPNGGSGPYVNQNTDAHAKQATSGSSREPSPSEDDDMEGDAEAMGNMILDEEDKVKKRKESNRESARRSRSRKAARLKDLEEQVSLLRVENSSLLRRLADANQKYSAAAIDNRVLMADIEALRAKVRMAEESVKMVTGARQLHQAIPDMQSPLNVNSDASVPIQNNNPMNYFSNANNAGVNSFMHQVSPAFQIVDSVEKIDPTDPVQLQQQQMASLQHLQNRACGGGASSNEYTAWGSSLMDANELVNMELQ
Assay: protein-binding microarray (RPBM); PBS, 2% BSA, 51.3 ng/ul salmon testes DNA, 50 uM zinc acetate, 200 nM TF, 25 C, 1 h; high values mean tight binding
Settings: protein: recombinant; tags: N-terminal polyhistidine and DsRed monomer fusion (pET32a); chain copies: 2; label: CyDye5-dUTP incorporated in the synthesized complementary strand; 3' TTTTT single-stranded linker to array surface; dsDNA, one strand shown
Procedure, shortened: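 Transcription factors were each fused at the N-terminus to a polyhistidine tag plus DsRed and expressed in E. coli BL21-CodonPlus before Ni–NTA purification. Binding to a double-stranded custom Agilent array was carried out with 200 nM protein at 25 °C for 1 h in PBS, 2% BSA, salmon testes DNA and 50 µM zinc acetate. The binding signal is per-feature fluorescence intensity, in arbitrary units, on an Axon 4000B scanner.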

Sequence	binding signal
CGTCGGAGCTAGCAGCAGCGCCGCCGCCCGTGAGCCCTCCCGGAGTCACCTAGTGCAG	6260 fluorescence intensity (a.u.)
CTAATAGAATGACGTGTAATTCCTTGTCACATTCATAAAACGGAGTCACCTAGTGCAG	11300 fluorescence intensity (a.u.)
ACATGCAAAGAGAAGACATCCCCTCGAGAGATGAAAATCCCGGAGTCACCTAGTGCAG	4000 fluorescence intensity (a.u.)
ACTTATCCCATGCAGAAACTTTATGACGCAGGCACAAATACGGAGTCACCTAGTGCAG	3250 fluorescence intensity (a.u.)
CGACCCTATCCGTACTGCACTTCCGGCCAACCCCACGTCGCGGAGTCACCTAGTGCAG	3790 fluorescence intensity (a.u.)
CCCATGATCCAGCCAGTCCAGTGGCGCGTCACCGCCTCACCGGAGTCACCTAGTGCAG	5210 fluorescence intensity (a.u.)
AAAGCTAATCCGGTGAAAGGCCCAAATACTTACGTGGGCCCGGAGTCACCTAGTGCAG	4800 fluorescence intensity (a.u.)
CATCACTGCAAACGAATTTCTGATGAATTTCCACGTTGAACGGAGTCACCTAGTGCAG	3320 fluorescence intensity (a.u.)
CTGGTATTAGCTGAAGTCAGCCTGCTTTTGGTCATTGGCACGGAGTCACCTAGTGCAG	3320 fluorescence intensity (a.u.)
CCGCCCTGACGTACGTAGCACAATCCTATCTCTGTTCTGTCGGAGTCACCTAGTGCAG	3590 fluorescence intensity (a.u.)
GGTGGTAGGTGCTTTGACCTCGCCTCCCCGAAGGAGGTTGCGGAGTCACCTAGTGCAG	3930 fluorescence intensity (a.u.)
TCGAGAAGTAGCCCGGGATGGTCGTGCCCGGCGGTGGCGGCGGAGTCACCTAGTGCAG	6740 fluorescence intensity (a.u.)
TATACCTGATTCACCTCACTGTCATAAAACTTGTTGCAAACGGAGTCACCTAGTGCAG	3760 fluorescence intensity (a.u.)
ACCGCCGCCTGTTCTTCCCGCGACTCCCCACCCCAACCCCCGGAGTCACCTAGTGCAG	16800 fluorescence intensity (a.u.)
GTGCGCGCTGCTGCCCGGGCCGCACCGTGTGATACGTACACGGAGTCACCTAGTGCAG	3450 fluorescence intensity (a.u.)
CGGTGGTTTTGGCTGACGTGGCACCTATGTGGCAAATTTGCGGAGTCACCTAGTGCAG	7870 fluorescence intensity (a.u.)
GTGCATGTCATGTAATACAATAAAATTCCAATTGACAAGTCGGAGTCACCTAGTGCAG	3390 fluorescence intensity (a.u.)
CCTGCCGCCACGTCTGGAGGTCATGTTCCCCACTTCGGTGCGGAGTCACCTAGTGCAG	5160 fluorescence intensity (a.u.)
CTAATGTGCAGCTCCCATGGATGACTCAGCAGACAGCAGGCGGAGTCACCTAGTGCAG	14800 fluorescence intensity (a.u.)
CCCGTTTCCATCGTTAGTGCTGGGCCGAAAGTTCTAGGCCCGGAGTCACCTAGTGCAG	29200 fluorescence intensity (a.u.)
AGTGAGATCCACGGGACGGAAGTGCACATGCCAACGCATGCGGAGTCACCTAGTGCAG	4320 fluorescence intensity (a.u.)

Two records picked at random from the list so far:
Sequence	binding signal
ACCGCCGCCTGTTCTTCCCGCGACTCCCCACCCCAACCCCCGGAGTCACCTAGTGCAG	16800 fluorescence intensity (a.u.)
ACTTATCCCATGCAGAAACTTTATGACGCAGGCACAAATACGGAGTCACCTAGTGCAG	3250 fluorescence intensity (a.u.)

Next part.

Sequence	binding signal
CAAAGCACTCGTTGTCACCCACTTGGCCGACGTCATCGCGCGGAGTCACCTAGTGCAG	11200 fluorescence intensity (a.u.)
GCGAGTTTGCGCAGCCTGCCTCGTACGTAGGCCTGGCCCACGGAGTCACCTAGTGCAG	4250 fluorescence intensity (a.u.)
GCACCGTTCCACCCTCGTGTCCGTCTCGCATTGCACCAAACGGAGTCACCTAGTGCAG	3550 fluorescence intensity (a.u.)
GACCTAGAAAATCACATGACATAGCCCCTAGCATTGTAGCCGGAGTCACCTAGTGCAG	4030 fluorescence intensity (a.u.)
GTATACCGAACCCGTCGTCGTCGACGCCACGCTCGCATTGCGGAGTCACCTAGTGCAG	5480 fluorescence intensity (a.u.)
ATGAACTCATGCAACATTACTGGCTGATGCATCAACTTTACGGAGTCACCTAGTGCAG	3270 fluorescence intensity (a.u.)
CCGGCCACCGCCCTCCCGCCGCACGGGCCACCGGCCACCGCGGAGTCACCTAGTGCAG	3460 fluorescence intensity (a.u.)
AAATCCTCTCGTTTCTCCGCTCGCTGATTCATTCTCAACGCGGAGTCACCTAGTGCAG	3180 fluorescence intensity (a.u.)
CTTTTGAGTGATCAAAAGGACACTTGGTGGCTACATGTAACGGAGTCACCTAGTGCAG	3160 fluorescence intensity (a.u.)
CCCAGATCCAGCCCACGGCCCACGTGTCAACGCTCGTGCACGGAGTCACCTAGTGCAG	12900 fluorescence intensity (a.u.)
GGTGGGACGTGGTGGGCGTCAAGGCGGCGGTGGGAGGGGACGGAGTCACCTAGTGCAG	5220 fluorescence intensity (a.u.)
TTATCCATTTTACCCACTTTGTCCATACCCATTTGTTATGCGGAGTCACCTAGTGCAG	3960 fluorescence intensity (a.u.)
GCGATGCCTCTGAGAAGGGCGCGTGGACCTCCAGCAGCATCGGAGTCACCTAGTGCAG	3540 fluorescence intensity (a.u.)
CCCGTTGTCACCAACCTCCACGCAGGATCCGCACCGCCGCCGGAGTCACCTAGTGCAG	4670 fluorescence intensity (a.u.)
GAGCTCGCCCACTGCCGCCACGTTCCTGCTTCGGCCACCTCGGAGTCACCTAGTGCAG	4020 fluorescence intensity (a.u.)
CTTCCAGCAAGGTGTGTAGCGTCCACAGGTGTCACCGATGCGGAGTCACCTAGTGCAG	4500 fluorescence intensity (a.u.)
CAGTGTACTAGTCTATGTACGTGTTGGACTCGTTCTTCTCCGGAGTCACCTAGTGCAG	3860 fluorescence intensity (a.u.)
CCACCCTGACATGTGGGGTCCACGTAGATCCTACGCTGATCGGAGTCACCTAGTGCAG	11000 fluorescence intensity (a.u.)
AGCGCCTGCCACCCTGACACGTGTCCATCTGTTCGGACAACGGAGTCACCTAGTGCAG	9180 fluorescence intensity (a.u.)
TAATTTGGGTAATTACTACTGGTAATTGCGTTAATCTGGTCGGAGTCACCTAGTGCAG	22900 fluorescence intensity (a.u.)
GCATATGGGGCATATATACGTACATGACTGAATCATCGTTCGGAGTCACCTAGTGCAG	3250 fluorescence intensity (a.u.)
